Laboratory results: PubChem BioAssay AID2551 (National Center for Advancing Translational Sciences (NCATS), 2010)
The campaign covered roughly 310,000 compounds. About 17,000 (5.5%) were called active. The inconclusive results got no clear call from the source; some entries with a clear call stand among them for comparison. Calls follow the shape of the dose curve; as a rule, active = well fitted inhibition curve with a large enough effect; inconclusive = small, poorly fitted or top-dose-only effect, or effect the other way; inactive = no such curve, though single readings can be large or run the other way. Where the call is inconclusive, the potency comes from a doubtful curve fit.

Amino acid sequences for entries named in this document (tags omitted). A change or cut given only in a name is not applied to a line headed by its entry.
UniProt P51450: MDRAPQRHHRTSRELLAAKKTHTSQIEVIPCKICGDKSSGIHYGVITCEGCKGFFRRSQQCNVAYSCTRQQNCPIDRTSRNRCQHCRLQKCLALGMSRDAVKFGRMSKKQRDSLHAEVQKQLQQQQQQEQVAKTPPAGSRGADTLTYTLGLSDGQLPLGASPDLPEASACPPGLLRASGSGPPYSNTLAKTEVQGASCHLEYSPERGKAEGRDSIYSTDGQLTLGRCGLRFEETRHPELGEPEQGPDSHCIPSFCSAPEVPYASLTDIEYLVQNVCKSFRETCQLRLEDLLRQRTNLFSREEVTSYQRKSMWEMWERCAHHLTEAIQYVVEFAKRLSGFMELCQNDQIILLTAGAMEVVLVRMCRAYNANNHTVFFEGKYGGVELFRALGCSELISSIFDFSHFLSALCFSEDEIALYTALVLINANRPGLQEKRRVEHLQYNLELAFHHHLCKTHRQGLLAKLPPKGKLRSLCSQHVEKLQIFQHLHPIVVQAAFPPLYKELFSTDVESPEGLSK

Each molecule was assayed against Nuclear receptor ROR-gamma (Mus musculus) (UniProt P51450) (assay: qHTS for inhibitors of ROR gamma transcriptional activity). Conditions: Drosophila S2 Gal4-RORgamma UAS-luciferase reporter, 20 h; series mostly up to 53.6 µM.
In short: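 Luciferase reporter read in Schneider cells carrying Gal4-RORγ (mouse) and UAS-Photinus luciferase; cells given compound 1 h before 700 uM copper sulfate induction, then incubated 20 h at ambient temperature.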
Also: nearly all actives have a fitted effect of over 60% in size.
Potency is read from the fitted curve at half-maximal effect.

| Structure (SMILES) | Potency |
| --- | --- |
| CCN1C(=O)/C(=c2\sc3nc(=O)c(Cc4ccccc4)nn3c2=O)c2ccccc21 | inconclusive: 12.6 µM [inhibitor, single point] |
| Cc1onc(-c2c(F)cccc2Cl)c1C(=O)Nc1nnc(C(F)(F)F)s1 | inconclusive: 35.5 µM [inhibitor, single point] |
| COC(=O)Nc1ccc(S(=O)(=O)Nc2cnc3ccccc3n2)cc1 | inconclusive: 35.5 µM [activator, single point] |
| COc1ccc(-c2[nH]ncc2CN(C)Cc2cccnc2)c(F)c1 | inconclusive: 15.8 µM [activator, single point] |
| COC(=O)c1c(NC(=O)COC(=O)c2ccc(O)cc2)sc2c1CCCCC2 | inconclusive: 31.6 µM [inhibitor, single point] |
| CC(C)(C)[C@@H]1C=C(C(=O)N2CCN(Cc3ccc4c(c3)OCO4)CC2)O[C@H](OCc2ccc(CO)cc2)C1 | inactive |
| CCN(C(=O)C1CCCN(c2ncnc3c2nc2n3CCCCC2)C1)c1cccc(Cl)c1 (centres undefined) | inconclusive: 35.5 µM [activator, single point] |
| Cc1nn(-c2ccccc2)c(C)c1/C=N/NC(=O)c1cccs1 | inconclusive: 1.41 µM [activator, full curve, poor fit] |
| Cc1cc(C)n(Cc2n[nH]c(=S)n2Cc2ccccc2)n1 | active: 11.2 µM |
| O=C(NN1C(=O)c2ccccc2NC1c1ccco1)c1ccc(Br)cc1 (centres undefined) | inconclusive: 12.6 µM [activator, single point] |
| COc1cccc(-n2c(Cn3nc(C(F)F)cc3C(F)F)n[nH]c2=S)c1 | inconclusive: 17.8 µM [inhibitor, single point] |
| N#C/C(=C(/O)c1cccs1)c1nc2ccccc2[nH]1 | inconclusive: 28.2 µM [inhibitor, single point] |
| COc1c2ccoc2nc2c(OC)c(OC[C@H](O)C(C)(C)O)ccc12 | inactive |
| CNC(=S)N1N=C(c2ccc(C)cc2)CC1c1ccc(OC)c(OC)c1 (centres undefined) | inactive |
| CCCC(C)C(=O)Nc1nc(C)c(-c2csc(Nc3cc(OC)ccc3OC)n2)s1 (centres undefined) | inconclusive: 3.55 µM [activator, single point] |
| O=C(COC(=O)c1ccccc1Nc1cccc(C(F)(F)F)c1)NCc1ccco1 | inconclusive: 35.5 µM [activator, single point] |
| COC(=O)C1=C(C(C)=O)C(c2ccc(C)cc2)n2nnnc2N1 (centres undefined) | inconclusive: 0.112 µM [inhibitor, full curve, poor fit] |
| c1cc2c(cc1C1CCCCC1)c1c3n2CCN[C@H]3CCC1 | inconclusive: 31.6 µM [inhibitor, single point] |
| CN(C(=O)COC(=O)c1ccc([N+](=O)[O-])cc1)c1ccccc1 | inactive |
| O=C(N/N=C/c1cccs1)c1cccc(NC(=O)c2ccccc2Cl)c1 | inconclusive: 20 µM [inhibitor, single point] |
| O=C(CSc1nc2ccccc2s1)Nc1ccc(Cl)c(C(=O)O)c1 | inconclusive: 25.1 µM [inhibitor, single point] |
| Cc1sc(NC(=O)CSc2nnc(C(C)C)n2C)c(C#N)c1C | inconclusive: 3.55 µM [activator, single point] |

Laid out differently: entries from further up.
Structure (SMILES)	Potency
CNC(=S)N1N=C(c2ccc(C)cc2)CC1c1ccc(OC)c(OC)c1 (centres undefined)	inactive
CCCC(C)C(=O)Nc1nc(C)c(-c2csc(Nc3cc(OC)ccc3OC)n2)s1 (centres undefined)	inconclusive: 3.55 µM [activator, single point]
O=C(COC(=O)c1ccccc1Nc1cccc(C(F)(F)F)c1)NCc1ccco1	inconclusive: 35.5 µM [activator, single point]

More records.

| Structure (SMILES) | Potency |
| --- | --- |
| Cc1ccc(CNC(=O)Cn2cccc2C(=O)c2ccccc2C)cc1 | inconclusive: 10 µM [activator, partial curve] |
| Cc1cc(C)c(S(=O)(=O)Nc2ccc3[nH]c(=O)[nH]c3c2)c(C)c1 | inconclusive: 20 µM [activator, single point] |
| Cc1ccc2nc(C)cc(C(=O)N3CCCC(N4CCN(c5ccccc5C)CC4)C3)c2c1 (centres undefined) | inactive |
| O=C(CCC(=O)c1ccc(Br)cc1)Nc1cccnc1 | inactive |
| CN1C(=O)C(CC(=O)O)S/C1=N\N=C\c1ccc(O)cc1O (centres undefined) | inconclusive: 22.4 µM [inhibitor, single point] |
| COc1ccc(NC(=O)CCc2c(C)nn(-c3ccc(N4CCOCC4)nn3)c2C)cc1 | inactive |
| O=C(Nc1cccc(NC(=O)c2ccccc2Cl)c1)c1cccs1 | inconclusive: 35.5 µM [activator, single point] |
| Cc1ccnc(NC(=O)Cn2cc([N+](=O)[O-])cn2)c1 | inactive |
| O=C(Cc1ccccc1)c1ccc(Cl)cc1 | inconclusive: 35.5 µM [activator, single point] |
| O=C(CCS(=O)(=O)c1cccc2nonc12)Nc1ccc(Br)cc1 | inconclusive: 2.24 µM [activator, partial curve, poor fit] |
| CCCNC(=O)C1CC(c2ccc(C(F)(F)F)cc2)=NO1 (centres undefined) | inactive |
| CCOC(=O)c1sc(NC(=O)CN2C(=O)c3cccc4cccc(c34)C2=O)nc1C | inconclusive: 12.6 µM [inhibitor, partial curve] |
| CC(=O)Nc1ccc2c(c1)CCCC2 | inconclusive: 11.2 µM [activator, single point] |
| COC(=O)c1ccc(-c2noc(CN3CCCCC3c3nccn3C)n2)cc1 (centres undefined) | active: 12.6 µM |
| O=C(Nc1ccc(Cc2ccncc2)cc1)c1ccc(S(=O)(=O)N2CCCC2)cc1 | inconclusive: 10 µM [inhibitor, single point] |
| NC(=O)c1ccccc1OCCOc1ccc(Br)cc1 | inconclusive: 11.2 µM [activator, partial curve] |
| CC(=O)Nc1ccc(SCCN2CCN(CCc3ccccc3)CCC2=O)cc1 | inactive |
| CC(C)Cn1c(N)c(C(=O)COC(=O)c2ccccc2Cl)c(=O)n(C)c1=O | inconclusive: 11.2 µM [activator, partial curve] |
| CCOC(=O)N1CCN(C(=O)c2cc3c(=O)[nH]c4ccccc4c3s2)CC1 | inactive |
| Cc1ccc(S(=O)(=O)CCc2nnc(NC(=O)CCl)s2)cc1C | inconclusive: 22.4 µM [inhibitor, single point] |
| c1ccc2c(CSCc3nc4ccccc4[nH]3)cccc2c1 | inconclusive: 11.2 µM [inhibitor, single point] |
| C=CCSc1nnc(NC(=O)c2cccc(S(=O)(=O)N(C)c3ccccc3)c2)s1 | inconclusive: 11.2 µM [inhibitor, single point] |
